Experimental data taken from patent US7172879B2, “Detection of sphingosine kinase activity and sphingosine kinase agonist or antagonist activity” (Johnson & Johnson Pharmaceutical Research & Development LLP, priority 1997, dated 2007).
Some results were stated once for a whole list of compounds, not compound by compound. For at least one compound, name, drawing or mass did not settle the structure.

Columns and labels:
VCAM-1 = assay: Cell-surface expression of VCAM-1 by HUVECs, flow cytometry; format: cell-based, human; conditions: endothelial cells; agent alone, 4 h
Method: (§1) Confluent monolayers of HUVECs were preincubated with or without HDL that was isolated as the fraction of density 1.13˜1.21 g/ml from human plasma at a concentration of 1 mg/ml of apoA-1. After 16-h preincubation, the cells were treated with TNFα (100 U/ml). Following 4-h treatment of TNFα, the cell-surface expression of VCAM-1 and E-selectin was measured by using flow cytometry.
(§2) HUVECs were treated with an increasing concentration of C2-ceramide with or without TNF α(100 U/ml), or an increasing concentration of Sph-1-P for 4 h. The cell-surface expression of VCAM-1 or E-selectin was measured by flow cytometry. Effect of sphingosine kinase inhibitor (DMS) on the expression of VCAM-1 and E-selectin. The cells were treated with a vehicle (Nil), DMS (5 μM), Sph-1-P (5 μM), C2-ceramide (10 μM) or TNFα (100 U/ml) for 4 h, then measure VCAM-1 or E-selectin expression. Effect of agents on E-selectin mRNA levels and the comparison between the effect of HDL and DMS. After the indicated treatment for 4 h, E-selectin mRNA levels were measured by Northern blotting assay. Results shown in (D) are representative of three similar experiments.

E-selectin = assay: Cell-surface expression of E-selectin by HUVECs, flow cytometry; format: cell-based, human; conditions: endothelial cells; agent alone, 4 h
Method: as §1, §2

Molecule	stimulation of VCAM-1 expression, level relative to that stimulated by TNF-α (VCAM-1)	stimulation of E-selectin expression, level relative to that stimulated by TNF-α (E-selectin)
CCCCCCCCCCCCC/C=C/[C@@H](O)[C@H](CO)NC(C)=O [C2-ceramide]	less than 10%	less than 10%
sphingomyelinase	less than 10%	less than 10%
